# PubChem BioAssay AID540276 (National Center for Advancing Translational Sciences (NCATS), 2011)
# The campaign covered roughly 300,000 compounds. About 5,400 (1.8%) were called active. The inconclusive results got no clear call from the source; some entries with a clear call stand among them for comparison. The call rests on the fitted dose curve; tested in HEK293 cells. Where the call is inconclusive, the potency comes from a doubtful curve fit.
# Experiment: qHTS for inhibitors of binding or entry into cells for Marburg Virus
# Details: Marburg virus pseudotyped entry inhibition, cell reporter; series mostly up to 37.8 µM
# Potency means the concentration at half of the fitted maximal effect.
row,SMILES,Potency
1,CCOc1nc(-c2ccccc2)ccc1-c1noc(COc2ccccc2)n1,"inconclusive: 3.98 µM [inhibitor, single point]"
2,Cc1ccc(NC(=O)Cc2ccc(-c3ccccc3)cc2)nc1,inactive
3,COc1ccc(-n2cnc(N)c2C(=O)c2cccc([N+](=O)[O-])c2)cc1,"inconclusive: 0.259 µM [inhibitor, full curve]"
4,CCCOc1ccc(N)cc1N,"inconclusive: 7.94 µM [inhibitor, partial curve, poor fit]"
5,Cc1ccc(NC(=O)Cn2c(-c3cncs3)nc3ccccc32)c(Br)c1,inactive
6,CC(=O)c1cc(C#N)c(SCc2ccccn2)nc1C,"inconclusive: 5.62 µM [activator, single point]"
7,COc1ccccc1NS(=O)(=O)c1cc(C(=O)NCC(c2ccco2)N2CCCCC2)ccc1C (centres undefined),"inconclusive: 35.5 µM [inhibitor, single point]"
8,Cc1ccc(NC(=O)CNc2ccc(N3CCOCC3)cc2)cc1S(=O)(=O)N(C)C,"inconclusive: 2.24 µM [inhibitor, partial curve, poor fit]"
9,Cc1ccccc1Nc1nc(N)nc(C)c1Br,"inconclusive: 1.58 µM [inhibitor, partial curve, poor fit]"
10,O=C(CNC(=O)c1ccco1)N/N=C/c1cc(Br)ccc1O,active: 2 µM
11,CCCc1cc(=O)c2c(O)ccc(OC)c2o1,inactive
12,OC1(c2cccc(C(F)(F)F)c2)CCN(Cc2nnnn2Cc2ccccc2)CC1,"inconclusive: 15.8 µM [inhibitor, single point]"
13,Cc1ccc(-c2nn3c(C)nnc3c3ccccc23)cc1S(=O)(=O)NCc1ccco1,inactive
14,Cc1cc(C)n(/C(=C/N(C)C)C(=O)c2ccccc2)n1,"inconclusive: 6.31 µM [activator, partial curve, poor fit]"
15,CCN(CC)C(=O)Cn1c(=O)n(-c2ccccc2)c(=O)c2c3c(sc21)CCC3,"inconclusive: 3.55 µM [activator, single point]"
16,CN(C(=O)c1ccc2c(Cl)c3c(nc2c1)CCC3)c1ccccc1F,"inconclusive: 22.4 µM [activator, single point]"
17,CC1(C)Cc2cccc(OCC(O)CN3CCN(c4ccccn4)CC3)c2O1 (centres undefined),inactive
18,COCCn1c(C)cc(C(=O)COC(=O)c2ccc([N+](=O)[O-])o2)c1C,inactive
19,c1ccc(COc2cccc(CNCc3cccnc3)c2)cc1,inactive
20,COc1ccc(/C=N/NC(=O)CN(C2=NS(=O)(=O)c3ccccc32)c2ccccc2)cc1,"inconclusive: 35.5 µM [inhibitor, single point]"
21,O=C(CSc1nccn1-c1cccc(Cl)c1)NC1CCCC1,"inconclusive: 0.708 µM [activator, full curve, poor fit]"
22,Cc1ccc(C(CCN)c2ccco2)cc1 (centres undefined),"inconclusive: 29.1 µM [inhibitor, single point]"

# Two compounds drawn at random from the list so far:
row,SMILES,Potency
22,Cc1ccc(C(CCN)c2ccco2)cc1 (centres undefined),"inconclusive: 29.1 µM [inhibitor, single point]"
19,c1ccc(COc2cccc(CNCc3cccnc3)c2)cc1,inactive

# Next part

row,SMILES,Potency
1,Cc1ccccc1/C=C(\C#N)c1nc(-c2ccc(Cl)cc2)cs1,inactive
2,Cc1ccc(-c2ccc(/C=N/NC(=O)CN3CCOCC3)o2)cc1[N+](=O)[O-],"inconclusive: 35.5 µM [inhibitor, single point]"
3,CC(=O)c1cccc(NC(=O)N2CCCC2C(=O)NCc2ccccc2)c1 (centres undefined),inactive
4,COc1ccc(O)c(C(=O)c2cc(C(=O)NCCc3ccccc3)c(=O)n(CCc3ccccc3)c2)c1,"inconclusive: 10 µM [inhibitor, partial curve, poor fit]"
5,O=C(Nc1cccnc1Cl)C1c2ccccc2Oc2ccccc21,"inconclusive: 0.891 µM [inhibitor, single point]"
6,COc1cc(OC)c(-c2oc3ccccc3c(=O)c2O)c(OC)c1,"inconclusive: 1.78 µM [inhibitor, full curve, poor fit]"
7,Cc1ccc(SCC(=O)NCCN2C(=O)CSC2=O)cc1C,inactive
8,CCOc1cc(NC(=S)NCC2CCCO2)c(OCC)cc1NC(=O)c1cccc(F)c1 (centres undefined),"inconclusive: 1.26 µM [inhibitor, full curve, poor fit]"
9,COC(=O)[C@H](Cc1ccccc1)NC(=O)N1CCCCC1,"inconclusive: 31.6 µM [activator, single point]"
10,COc1cc(/C=N/NC(=O)c2cn(-c3cccc(C)n3)cn2)ccc1O,"inconclusive: 14.1 µM [inhibitor, partial curve, poor fit]"
11,c1ccc2c(c1)NC(c1ccncc1)n1c-2nc2ccccc21 (centres undefined),"inconclusive: 8.91 µM [inhibitor, partial curve, poor fit]"
12,CC1CCC(C(=O)NC(C(=O)OCC(=O)c2ccc(Br)cc2)C(C)C)CC1 (centres undefined),inactive
13,COC1C(CO)OC(n2c3c(Cl)cccc3c3c4c(c5c6cccc(Cl)c6[nH]c5c32)C(=O)NC4=O)C(O)C1O (centres undefined),"inconclusive: 0.355 µM [inhibitor, full curve]"
14,Cc1ccc(S(=O)(=O)c2cn(CC(=O)Nc3cccc(C)c3)c3cc4c(cc3c2=O)OCO4)cc1,"inconclusive: 3.16 µM [inhibitor, single point]"
15,Cc1noc(C)c1Cc1ccc(O)cc1,"inconclusive: 29.1 µM [activator, single point]"
16,O=C(CSc1nc2cc(Cl)ccc2o1)N1CCOCC1,inactive
17,COc1ccc(CN2CCC(C(=O)NCCc3ccc(OC)c(OC)c3)CC2)c(OC)c1,"inconclusive: 17.8 µM [inhibitor, single point]"
18,Cc1ccc(NC(=O)Cn2cc(C(=O)C3CC3)c3ccccc32)cc1C,"inconclusive: 5.01 µM [activator, single point]"
19,COc1ccccc1NC(=O)Nc1nn(C)c2cccc(N(C)C)c12,"inconclusive: 35.5 µM [inhibitor, single point]"
20,CCOC(=O)c1ccccc1NC(=S)N1CCN(C(=O)c2ccco2)CC1,"inconclusive: 15.8 µM [inhibitor, partial curve, poor fit]"
21,Cc1nc(N2CCN(C(=O)c3ccco3)CC2)c2c3c(sc2n1)CCCC3,"inconclusive: 29.1 µM [inhibitor, single point]"
22,CCc1noc(C)c1C(=O)N1CCCC1,inactive
